Drawing on article PMC8543820, this text covers binding for ten molecules.

By UniProt entry, the sequences of proteins in these tests, tags left out. Where a name states a change or a piece, a line headed by the entry shows the natural chain unless it says otherwise.
UniProt P04198: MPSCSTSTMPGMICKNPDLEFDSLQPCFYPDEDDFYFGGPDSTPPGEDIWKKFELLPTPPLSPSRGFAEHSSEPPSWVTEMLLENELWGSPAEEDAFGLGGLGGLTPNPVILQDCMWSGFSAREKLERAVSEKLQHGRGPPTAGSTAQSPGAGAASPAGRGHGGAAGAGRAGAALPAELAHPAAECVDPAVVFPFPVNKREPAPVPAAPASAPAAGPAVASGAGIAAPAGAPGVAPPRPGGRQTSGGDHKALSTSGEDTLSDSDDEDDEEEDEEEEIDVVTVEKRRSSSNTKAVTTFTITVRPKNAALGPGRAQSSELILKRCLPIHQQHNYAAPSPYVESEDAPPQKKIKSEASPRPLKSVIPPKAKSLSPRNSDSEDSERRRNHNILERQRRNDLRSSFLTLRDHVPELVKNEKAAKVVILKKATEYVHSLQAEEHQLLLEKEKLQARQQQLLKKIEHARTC
UniProt P61244: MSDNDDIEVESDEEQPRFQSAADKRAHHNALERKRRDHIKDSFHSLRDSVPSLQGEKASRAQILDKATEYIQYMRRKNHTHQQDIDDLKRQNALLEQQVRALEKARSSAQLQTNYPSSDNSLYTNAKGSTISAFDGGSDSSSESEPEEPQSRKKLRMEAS
UniProt Q96EZ8: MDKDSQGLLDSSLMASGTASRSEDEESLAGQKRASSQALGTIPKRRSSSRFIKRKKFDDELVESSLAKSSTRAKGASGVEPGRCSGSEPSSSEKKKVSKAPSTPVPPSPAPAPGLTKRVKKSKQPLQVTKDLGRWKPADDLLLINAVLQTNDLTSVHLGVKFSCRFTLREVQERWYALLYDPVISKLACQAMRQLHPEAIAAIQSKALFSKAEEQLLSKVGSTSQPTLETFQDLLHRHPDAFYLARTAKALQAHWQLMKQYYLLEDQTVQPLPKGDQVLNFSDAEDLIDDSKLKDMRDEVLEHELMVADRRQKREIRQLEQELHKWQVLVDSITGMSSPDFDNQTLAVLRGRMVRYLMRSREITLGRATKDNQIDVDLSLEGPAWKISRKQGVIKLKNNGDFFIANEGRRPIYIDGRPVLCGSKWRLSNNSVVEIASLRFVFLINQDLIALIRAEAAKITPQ
UniProt P10155: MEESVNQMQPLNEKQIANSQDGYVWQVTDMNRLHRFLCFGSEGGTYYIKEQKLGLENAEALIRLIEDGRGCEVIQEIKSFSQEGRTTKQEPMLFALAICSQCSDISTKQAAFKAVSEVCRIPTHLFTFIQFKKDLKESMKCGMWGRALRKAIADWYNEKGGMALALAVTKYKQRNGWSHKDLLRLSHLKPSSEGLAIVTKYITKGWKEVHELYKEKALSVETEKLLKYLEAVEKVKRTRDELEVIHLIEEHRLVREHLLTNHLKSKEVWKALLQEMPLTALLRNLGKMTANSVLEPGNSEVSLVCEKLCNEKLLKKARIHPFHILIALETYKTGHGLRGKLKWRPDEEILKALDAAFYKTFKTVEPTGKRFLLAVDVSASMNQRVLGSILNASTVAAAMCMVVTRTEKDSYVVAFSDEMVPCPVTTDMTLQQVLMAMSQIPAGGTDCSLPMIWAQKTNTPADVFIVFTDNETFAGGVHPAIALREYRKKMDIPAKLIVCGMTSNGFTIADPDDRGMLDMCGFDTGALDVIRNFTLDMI
UniProt Q9Y4A5: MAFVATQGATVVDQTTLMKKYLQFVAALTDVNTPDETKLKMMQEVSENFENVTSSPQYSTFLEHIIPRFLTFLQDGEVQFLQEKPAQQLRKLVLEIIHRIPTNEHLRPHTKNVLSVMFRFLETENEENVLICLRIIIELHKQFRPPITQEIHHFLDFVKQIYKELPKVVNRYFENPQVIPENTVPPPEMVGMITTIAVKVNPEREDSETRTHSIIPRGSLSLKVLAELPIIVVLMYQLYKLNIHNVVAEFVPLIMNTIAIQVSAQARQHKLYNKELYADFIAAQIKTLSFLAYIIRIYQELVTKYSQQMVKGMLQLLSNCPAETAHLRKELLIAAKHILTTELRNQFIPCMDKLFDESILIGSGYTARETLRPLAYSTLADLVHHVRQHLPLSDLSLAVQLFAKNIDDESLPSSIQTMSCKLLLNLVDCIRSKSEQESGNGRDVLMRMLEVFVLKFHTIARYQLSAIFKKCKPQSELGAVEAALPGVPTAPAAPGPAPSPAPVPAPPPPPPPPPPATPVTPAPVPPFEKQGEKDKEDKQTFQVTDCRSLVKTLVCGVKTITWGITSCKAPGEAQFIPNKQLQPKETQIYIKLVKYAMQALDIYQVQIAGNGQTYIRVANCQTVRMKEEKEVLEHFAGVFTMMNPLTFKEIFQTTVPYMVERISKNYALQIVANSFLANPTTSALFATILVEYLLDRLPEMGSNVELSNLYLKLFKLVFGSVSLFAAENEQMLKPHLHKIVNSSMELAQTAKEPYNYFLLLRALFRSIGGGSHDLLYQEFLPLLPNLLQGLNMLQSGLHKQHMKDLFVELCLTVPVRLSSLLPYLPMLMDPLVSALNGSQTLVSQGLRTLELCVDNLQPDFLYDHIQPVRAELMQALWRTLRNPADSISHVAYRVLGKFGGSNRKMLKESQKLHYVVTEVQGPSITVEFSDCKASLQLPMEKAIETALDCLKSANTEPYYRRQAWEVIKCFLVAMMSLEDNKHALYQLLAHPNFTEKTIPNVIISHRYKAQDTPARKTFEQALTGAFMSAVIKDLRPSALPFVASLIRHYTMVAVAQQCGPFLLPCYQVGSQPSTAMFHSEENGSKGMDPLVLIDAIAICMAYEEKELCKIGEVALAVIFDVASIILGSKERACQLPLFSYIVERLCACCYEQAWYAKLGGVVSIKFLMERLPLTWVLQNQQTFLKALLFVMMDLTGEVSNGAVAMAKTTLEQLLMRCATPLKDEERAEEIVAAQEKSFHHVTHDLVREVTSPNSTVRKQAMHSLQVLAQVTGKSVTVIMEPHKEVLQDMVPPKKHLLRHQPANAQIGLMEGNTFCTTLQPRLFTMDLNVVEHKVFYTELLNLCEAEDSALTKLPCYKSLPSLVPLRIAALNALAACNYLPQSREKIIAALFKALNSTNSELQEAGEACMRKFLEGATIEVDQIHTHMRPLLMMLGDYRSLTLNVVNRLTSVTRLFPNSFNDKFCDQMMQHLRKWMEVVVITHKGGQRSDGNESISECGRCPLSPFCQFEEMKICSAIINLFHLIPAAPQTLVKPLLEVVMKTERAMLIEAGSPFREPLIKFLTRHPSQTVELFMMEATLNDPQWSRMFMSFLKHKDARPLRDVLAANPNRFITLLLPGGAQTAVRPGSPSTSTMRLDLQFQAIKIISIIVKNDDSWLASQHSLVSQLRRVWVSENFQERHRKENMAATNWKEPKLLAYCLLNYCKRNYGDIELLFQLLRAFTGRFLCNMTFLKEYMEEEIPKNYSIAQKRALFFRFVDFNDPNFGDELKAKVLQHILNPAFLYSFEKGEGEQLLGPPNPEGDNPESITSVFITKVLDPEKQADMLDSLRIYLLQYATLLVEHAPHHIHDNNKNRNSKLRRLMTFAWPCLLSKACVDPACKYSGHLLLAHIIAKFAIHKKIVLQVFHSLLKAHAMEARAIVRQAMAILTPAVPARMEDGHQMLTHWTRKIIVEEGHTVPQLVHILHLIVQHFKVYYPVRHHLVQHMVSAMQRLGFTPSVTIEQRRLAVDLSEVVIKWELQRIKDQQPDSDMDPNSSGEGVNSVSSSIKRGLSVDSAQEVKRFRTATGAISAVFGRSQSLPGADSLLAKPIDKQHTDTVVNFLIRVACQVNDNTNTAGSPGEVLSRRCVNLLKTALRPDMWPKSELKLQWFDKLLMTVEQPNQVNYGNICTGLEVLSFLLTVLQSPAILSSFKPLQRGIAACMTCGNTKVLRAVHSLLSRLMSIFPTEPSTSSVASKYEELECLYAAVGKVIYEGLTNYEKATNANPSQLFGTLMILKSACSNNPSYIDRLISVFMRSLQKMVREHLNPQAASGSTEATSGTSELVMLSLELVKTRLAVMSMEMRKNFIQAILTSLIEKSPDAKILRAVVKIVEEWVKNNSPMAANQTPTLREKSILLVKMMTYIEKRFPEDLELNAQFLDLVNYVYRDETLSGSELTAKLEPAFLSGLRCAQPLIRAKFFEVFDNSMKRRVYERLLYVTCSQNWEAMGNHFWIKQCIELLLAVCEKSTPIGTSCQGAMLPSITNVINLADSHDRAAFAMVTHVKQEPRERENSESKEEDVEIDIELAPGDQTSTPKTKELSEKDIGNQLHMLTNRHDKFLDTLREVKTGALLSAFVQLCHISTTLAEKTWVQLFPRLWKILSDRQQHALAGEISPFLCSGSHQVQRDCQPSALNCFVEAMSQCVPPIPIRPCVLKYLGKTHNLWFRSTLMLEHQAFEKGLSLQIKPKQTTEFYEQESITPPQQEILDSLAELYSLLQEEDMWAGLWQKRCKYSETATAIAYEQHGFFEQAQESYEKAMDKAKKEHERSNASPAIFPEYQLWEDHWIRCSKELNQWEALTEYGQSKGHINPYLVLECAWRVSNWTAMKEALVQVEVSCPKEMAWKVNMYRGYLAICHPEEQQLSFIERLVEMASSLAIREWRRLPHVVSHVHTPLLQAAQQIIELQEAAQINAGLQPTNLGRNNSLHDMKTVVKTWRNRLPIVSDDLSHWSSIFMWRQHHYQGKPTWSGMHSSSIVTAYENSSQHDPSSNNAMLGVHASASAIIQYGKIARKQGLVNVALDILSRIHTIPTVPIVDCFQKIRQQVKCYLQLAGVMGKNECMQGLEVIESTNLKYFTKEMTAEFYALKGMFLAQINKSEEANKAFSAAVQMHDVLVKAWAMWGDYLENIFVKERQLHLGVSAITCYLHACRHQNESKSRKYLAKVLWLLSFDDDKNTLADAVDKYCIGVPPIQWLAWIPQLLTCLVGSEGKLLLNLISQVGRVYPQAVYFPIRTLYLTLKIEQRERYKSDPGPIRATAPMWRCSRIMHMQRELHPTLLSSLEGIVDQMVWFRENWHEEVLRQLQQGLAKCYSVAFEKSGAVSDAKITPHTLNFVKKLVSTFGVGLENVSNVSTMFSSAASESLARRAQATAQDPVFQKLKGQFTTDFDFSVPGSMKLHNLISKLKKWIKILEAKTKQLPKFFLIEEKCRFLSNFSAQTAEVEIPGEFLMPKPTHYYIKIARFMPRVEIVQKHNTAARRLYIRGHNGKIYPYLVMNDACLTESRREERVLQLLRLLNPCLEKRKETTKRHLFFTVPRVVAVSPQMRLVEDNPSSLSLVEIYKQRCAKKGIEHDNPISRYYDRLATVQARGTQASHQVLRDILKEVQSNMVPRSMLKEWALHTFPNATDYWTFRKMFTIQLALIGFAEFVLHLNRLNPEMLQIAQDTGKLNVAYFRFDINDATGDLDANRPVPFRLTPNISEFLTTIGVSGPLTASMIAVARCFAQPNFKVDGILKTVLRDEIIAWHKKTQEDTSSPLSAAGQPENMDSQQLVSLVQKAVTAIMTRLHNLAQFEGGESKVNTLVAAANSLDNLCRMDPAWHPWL
UniProt P51784: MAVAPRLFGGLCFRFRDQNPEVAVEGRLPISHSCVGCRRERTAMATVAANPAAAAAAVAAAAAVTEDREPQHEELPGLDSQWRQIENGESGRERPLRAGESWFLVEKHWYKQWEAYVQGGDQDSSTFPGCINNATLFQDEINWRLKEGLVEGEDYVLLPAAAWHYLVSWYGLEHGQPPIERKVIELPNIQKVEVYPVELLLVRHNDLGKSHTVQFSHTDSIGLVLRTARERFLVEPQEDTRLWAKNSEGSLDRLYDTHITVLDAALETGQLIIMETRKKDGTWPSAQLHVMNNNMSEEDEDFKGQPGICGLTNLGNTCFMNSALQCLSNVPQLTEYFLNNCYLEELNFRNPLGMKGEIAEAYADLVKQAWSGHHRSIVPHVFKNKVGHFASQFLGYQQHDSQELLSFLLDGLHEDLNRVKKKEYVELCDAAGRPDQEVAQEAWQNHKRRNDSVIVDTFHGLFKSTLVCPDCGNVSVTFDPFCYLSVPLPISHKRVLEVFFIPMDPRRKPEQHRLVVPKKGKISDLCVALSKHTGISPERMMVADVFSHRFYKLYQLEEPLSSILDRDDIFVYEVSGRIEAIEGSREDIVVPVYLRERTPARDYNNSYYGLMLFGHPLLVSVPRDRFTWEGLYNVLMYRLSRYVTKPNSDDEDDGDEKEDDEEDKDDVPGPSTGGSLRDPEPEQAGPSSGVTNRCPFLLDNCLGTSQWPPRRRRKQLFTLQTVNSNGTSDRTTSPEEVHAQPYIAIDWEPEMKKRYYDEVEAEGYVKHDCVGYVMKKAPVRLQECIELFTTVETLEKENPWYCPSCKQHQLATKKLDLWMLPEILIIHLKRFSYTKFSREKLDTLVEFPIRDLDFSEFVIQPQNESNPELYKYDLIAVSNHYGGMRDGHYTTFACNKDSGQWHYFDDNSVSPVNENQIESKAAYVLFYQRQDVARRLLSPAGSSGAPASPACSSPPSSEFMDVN

Assay in all cases: affinity purification with mass spectrometry; HA-N-MYC complexes from 200 million stably transfected, doxycycline-induced HEK293 cells on HA-coupled magnetic beads, benzonase; label-free quantification against untransfected control cells; two biological replicates each for wild-type and P44L
Test [1] deals with HA-N-MYC (wild-type) (human) (UniProt P04198).
In test [2] the target is HA-N-MYC-P44L (human) (UniProt P04198).
Test [3] addresses HA-N-MYC (wild-type) (human) (UniProt P04198). This is another data set of the same source.
The target in test [4] is HA-N-MYC-P44L (human) (UniProt P04198). This is another data set of the same source.

Like-named read-outs stand apart in the source and are kept apart here. These are yes or no findings as the source states them, for the method shown. Binding seen in cells or lysates may run through a third protein. These calls come from enrichment with a bait or labelling near it, and not all partners need be listed.

For the molecule “DVL2 (endogenous) (from UniProt O14641 1-736)”, the binding entry (in test [1]; with HA-N-MYC-P44L (human) [2]) was “binds” each time.
With “EP400 (endogenous) (from UniProt Q96L91 1-3159)”, the binding result (in test [1]; with HA-N-MYC-P44L (human) [2]) was “binds” each time.
In the case of “FBXW7 (endogenous) (from UniProt Q969H0 1-707)”, the binding entry (in test [1]; with HA-N-MYC-P44L (human) [2]) was “binds” in each case.
In the case of “MAX (endogenous) (from UniProt P61244 1-160)”, the binding result (in test [1]; in the test with HA-N-MYC-P44L (human) [2]) was “binds” each time.
“MCRS1 (endogenous) (from UniProt Q96EZ8 1-462)”: the binding result (in test [1]; with HA-N-MYC-P44L (human) [2]) was “binds” each time.
Turning to “TLE1 (endogenous) (from UniProt Q04724 1-770)”, the binding entry (in test [1]; with HA-N-MYC-P44L (human) [2]) was “binds” throughout.
Regarding “TROVE2 (endogenous) (from UniProt P10155 1-538)”, the binding entry (in test [1]; with HA-N-MYC-P44L (human) [2]) was “binds” each time.
Regarding “TRRAP (endogenous) (from UniProt Q9Y4A5 1-3859)”, the binding result (in test [1]; in the test with HA-N-MYC-P44L (human) [2]) was “binds” in each case.
In the case of “USP11 (endogenous) (from UniProt P51784 1-963)”, the binding entry (in test [1]; in the test with HA-N-MYC-P44L (human) [2]) was “binds” each time.

B1: CBLL1 (endogenous) (protein, UniProt Q75N03 1-491)
chain: MDHTDNELQGTNSSGSLGGLDVRRRIPIKLISKQANKAKPAPRTQRTINRMPAKAPPGDEEGFDYNEEERYDCKGGELFANQRRFPGHLFWDFQINILGEKDDTPVHFCDKCGLPIKIYGRMIPCKHVFCYDCAILHEKKGDKMCPGCSDPVQRIEQCTRGSLFMCSIVQGCKRTYLSQRDLQAHINHRHMRAGKPVTRASLENVHPPIAPPPTEIPERFIMPPDKHHMSHIPPKQHIMMPPPPLQHVPHEHYNQPHEDIRAPPAELSMAPPPPRSVSQETFRISTRKHSNLITVPIQDDSNSGAREPPPPAPAPAHHHPEYQGQPVVSHPHHIMPPQQHYAPPPPPPPPISHPMPHPPQAAGTPHLVYSQAPPPPMTSAPPPITPPPGHIIAQMPPYMNHPPPGPPPPQHGGPPVTAPPPHHYNPNSLPQFTEDQGTLSPPFTQPGGMSPGIWPAPRGPPPPPRLQGPPSQTPLPGPHHPDQTRYRPYYQ
As for B1, the binding result (in test [3]; with HA-N-MYC-P44L (human) [4]) was “binds” each time.
